Data: patent US20100291682, “SYSTEM FOR TRANSPOSING HYPERACTIVE RECOMBINANT DERIVATIVES OF MOS-1 TRANSPOSON” (published 2010)

Molecular target: Maltose binding protein (MBP) (UniProt P0AEX9)
Assay: pull-down
Settings: MBP control has no affinity for ITRs; purified recombinant protein; protein details: pMalC2x, New England Biolabs; label: 32P

Binding result, no binding:
TCAGGTGTACAAGTATGAAATGTCGTTT (double strand) [Mos-1 ITR3']

Molecular target: T1, MBP-Mos-1 transposase (MBP-Tnp) (Drosophila mauritiana) (UniProt Q7JQ07)
T1 sequence: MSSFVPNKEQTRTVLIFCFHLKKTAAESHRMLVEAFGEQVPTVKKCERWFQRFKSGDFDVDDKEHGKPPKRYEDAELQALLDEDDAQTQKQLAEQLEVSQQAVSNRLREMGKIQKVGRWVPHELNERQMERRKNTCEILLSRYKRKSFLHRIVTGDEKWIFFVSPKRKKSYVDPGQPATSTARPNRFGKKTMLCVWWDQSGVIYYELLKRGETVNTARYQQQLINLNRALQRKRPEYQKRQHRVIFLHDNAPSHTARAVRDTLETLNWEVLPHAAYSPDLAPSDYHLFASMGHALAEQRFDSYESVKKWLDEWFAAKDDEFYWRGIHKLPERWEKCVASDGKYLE
Assay: competition with a labelled probe
Settings: does not displace labelled ITR3' up to 1500 nM; purified recombinant protein; protein details: N-terminal MBP (pMalC2x)

Binding result, no binding:
ATAGTGTTTAAAGCTTACT (double strand) [ITRSelex SEQ 44]
CGATTACAATTATGAAAACTTTCCT (double strand) [ITRSelex SEQ 42]
GAAGAGTTATAACTCAAGAAAACTGAAT (double strand) [ITRSelex SEQ 41]
GCGGGTGTGAAAATATGAAATATTCACT (double strand) [ITRSelex SEQ 40]
GGAGAAATGGTAGAATAGTTTA (double strand) [ITRSelex SEQ 43]
GTCAGTGATGTCACCAACGTATGGAATATCGTAT (double strand) [ITRSelex SEQ 45]

A negative result means that nothing was seen under these conditions. For some of these results: Tags and fusion partners may be left off the protein sequences shown. For some of these results: Construct, isoform or probe ends are uncertain for at least one entry.
